The list shows a part of the results.
Target: OsWRKY34 (Oryza sativa, UniProt Q0JBA9 1-250)
Experiment: protein-binding microarray (RPBM); PBS, 2% BSA, 51.3 ng/ul salmon testes DNA, 50 uM zinc acetate, 200 nM TF, 25 C, 1 h; high values mean tight binding
Details: protein: recombinant; tags: N-terminal polyhistidine and DsRed monomer fusion (pET32a); label: CyDye5-dUTP incorporated in the synthesized complementary strand; 3' TTTTT single-stranded linker to array surface; dsDNA, one strand shown
Outline: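 The binding signal is fluorescence intensity per feature, in arbitrary units, read on an Axon 4000B scanner. Polyhistidine- and DsRed-tagged transcription factors (N-terminal fusions) from E. coli BL21-CodonPlus were purified on Ni–NTA and applied at 200 nM for 1 h at 25 °C to a double-stranded, BSA-blocked custom Agilent array in buffer with 50 µM zinc acetate.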

Protein sequences, listed by entry. Tags and fused reporters are not part of them.
UniProt Q0JBA9, entry or part of it: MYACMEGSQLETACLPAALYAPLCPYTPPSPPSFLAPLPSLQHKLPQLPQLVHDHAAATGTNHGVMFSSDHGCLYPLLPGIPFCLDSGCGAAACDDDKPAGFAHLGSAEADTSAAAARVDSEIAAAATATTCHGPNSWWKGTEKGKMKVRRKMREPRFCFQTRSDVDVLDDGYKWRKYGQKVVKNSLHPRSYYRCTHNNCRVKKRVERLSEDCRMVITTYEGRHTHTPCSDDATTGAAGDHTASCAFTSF

Compared with “TCTTTTGAGCACCCCACTGGCCATGGTCTTTTATCGTCCCCGGAGTCACCTAGTGCAG”, “ACATGACACATATCCGTCCATGCCCATAGCTGTCAAACGCCGGAGTCACCTAGTGCAG” is lower in binding signal: 8490 fluorescence intensity (a.u.) for the first, 8180 fluorescence intensity (a.u.) for the second.

First: TGTTTCCGTCAGAATTTTGGTATGTTATCCGTGTTTGAATCGGAGTCACCTAGTGCAG
Second: ATTACAGCACTCATTCTTTATGGGTATTTGATTCCTATCTCGGAGTCACCTAGTGCAG
The binding signal of the first is higher: 9380 fluorescence intensity (a.u.) for the first, 8420 fluorescence intensity (a.u.) for the second.

First: CCTGTCTCGCCCGCAGCCACGCCGCCGCCTCGCCCTTTGCCGGAGTCACCTAGTGCAG
Second: AGCGAGTCATGACCTTTTTTTTTTCCCTCCAGCCCTAATCCGGAGTCACCTAGTGCAG
The binding signal of the first is higher: 9340 fluorescence intensity (a.u.) for the first, 8230 fluorescence intensity (a.u.) for the second.

First: CAGATCTTCTGCTACTCACAAGCTATGTTTTGTATACTGACGGAGTCACCTAGTGCAG
Second: GAATACTGGTTTGACTTACTCTTGTTTCGTCGTCACGCGCCGGAGTCACCTAGTGCAG
The binding signal of the first is lower: 9820 fluorescence intensity (a.u.) for the first, 11300 fluorescence intensity (a.u.) for the second.

Compared with “GGGATTTTGAATTTTTGGTTGCACTGTTTGACCACTCATCCGGAGTCACCTAGTGCAG”, “ACGTGTGTTTTCTCCTTTAATTGACTACAAAAATCGATTCCGGAGTCACCTAGTGCAG” is lower in binding signal: 12100 fluorescence intensity (a.u.) for the first, 10500 fluorescence intensity (a.u.) for the second.

Compared with “TGAAATTTCCCAAGTCTTCGGCCACCAATAACACATCGCCCGGAGTCACCTAGTGCAG”, “GTTCTTTCCATAGTAGTGTTTTTCCCTTTGTTTTCTCTTTCGGAGTCACCTAGTGCAG” is higher in binding signal: 8040 fluorescence intensity (a.u.) for the first, 8310 fluorescence intensity (a.u.) for the second.

First: TTCTATAGTGGCCTTTTACATATCCATTTCGGGAATCATCCGGAGTCACCTAGTGCAG
Second: TCTCCTCCTCCCCACGCGGCCGCCACCACCGCGGCGCCACCGGAGTCACCTAGTGCAG
The binding signal of the first is higher: 11900 fluorescence intensity (a.u.) for the first, 8290 fluorescence intensity (a.u.) for the second.

Going from “CCGGTCCCGTCGTTCTCCACCCGCGGTCCGCCATCGACGCCGGAGTCACCTAGTGCAG” to “CCTGTCCCTTGCACGCTACGAGCTCGATCTAGCAACCACTCGGAGTCACCTAGTGCAG”, the binding signal rises from 9060 fluorescence intensity (a.u.) to 9360 fluorescence intensity (a.u.).

Compared with “TTAATCTGTACTATCATTCGCGACAATTTTTTTTTCAAAACGGAGTCACCTAGTGCAG”, “AACCCGGTCTGACTTTTCATCAACTAGACCAAACTCTTTCCGGAGTCACCTAGTGCAG” is higher in binding signal: 8520 fluorescence intensity (a.u.) for the first, 8680 fluorescence intensity (a.u.) for the second.

Compared with “GATATATTTGTTTTGTATTAAAAATGTTGTTATACCTTTTCGGAGTCACCTAGTGCAG”, “GAAGTGAATAGTAGAGGGTTTTGATGGGTTGGGAAGAGAACGGAGTCACCTAGTGCAG” is higher in binding signal: 8380 fluorescence intensity (a.u.) for the first, 11200 fluorescence intensity (a.u.) for the second.

First: AAAAGGGGAAAATGTAGGGAGTGGGGAGGGAAAGTGCAAGCGGAGTCACCTAGTGCAG
Second: ATTTCTCTTGCCTATGTTTTCATTTTGCAATTATTTTTGTCGGAGTCACCTAGTGCAG
The binding signal of the first is lower: 10300 fluorescence intensity (a.u.) for the first, 10500 fluorescence intensity (a.u.) for the second.

First: AATTTTTCATCAAATTGTCATCTCTTTATGGAATAAGTCTCGGAGTCACCTAGTGCAG
Second: AGGAGAGAGAGAAGTAGTAGTAGTAGTATCCGAGAAAGCTCGGAGTCACCTAGTGCAG
The binding signal of the first is higher: 9850 fluorescence intensity (a.u.) for the first, 8100 fluorescence intensity (a.u.) for the second.

Compared with “GTTGCCTCGTGTCACCCCGTCCCGTCGCCTTTAACTCCATCGGAGTCACCTAGTGCAG”, “ACCTTCTTCATTTTGTTCATATATGTGCTCTGGTCCATATCGGAGTCACCTAGTGCAG” is higher in binding signal: 8280 fluorescence intensity (a.u.) for the first, 13100 fluorescence intensity (a.u.) for the second.

First: GTGTGTGCATGCTGATAGCTTGGTCTCTTGAGGATAATTGCGGAGTCACCTAGTGCAG
Second: ACTTCTTTCATTTACAACATATCAGCTTGGTTTCCCATTTCGGAGTCACCTAGTGCAG
The binding signal of the first is higher: 9730 fluorescence intensity (a.u.) for the first, 8680 fluorescence intensity (a.u.) for the second.

Compared with “TCCAAGTTCCCAACAAATTACCATATTTTTTATTGCGTTTCGGAGTCACCTAGTGCAG”, “CAAGCACACGCACACGCACACCACACAGTCTACCTATACCCGGAGTCACCTAGTGCAG” is lower in binding signal: 9010 fluorescence intensity (a.u.) for the first, 8370 fluorescence intensity (a.u.) for the second.

“TAGCCCACCACCGACGCCCTCGTTGACATGAAGTTTTATTCGGAGTCACCTAGTGCAG” and “CTTCTCTCCTTCTATTCCTTTCAGGCAATTCATCGAGCACCGGAGTCACCTAGTGCAG” are the same in binding signal: 10200 fluorescence intensity (a.u.) for the first, 10200 fluorescence intensity (a.u.) for the second.

Compared with “GCCTCTGGAAGGTACGGACCCCTTCCACTTTTGGGCCGGCCGGAGTCACCTAGTGCAG”, “CATGGTCGCCAACACCCTCCACGCCTGCGCCGTCCTCCTCCGGAGTCACCTAGTGCAG” is lower in binding signal: 8820 fluorescence intensity (a.u.) for the first, 8410 fluorescence intensity (a.u.) for the second.

Compared with “GTACAACCTGTGATTCCTCCACCACTGATTCGCCCTGTTTCGGAGTCACCTAGTGCAG”, “GTCTCTTCGTCGTATCCATTGCGAGAAGCTGCGCCGCATCCGGAGTCACCTAGTGCAG” is lower in binding signal: 12400 fluorescence intensity (a.u.) for the first, 8820 fluorescence intensity (a.u.) for the second.

Compared with “CGTGTGTGTTTCTTGGGGCTGAGCTGTTTGCTCTCCTGGTCGGAGTCACCTAGTGCAG”, “TTGTAGCTGATCTGTACTGTCTGATCGATTTGTATATATCCGGAGTCACCTAGTGCAG” is higher in binding signal: 9440 fluorescence intensity (a.u.) for the first, 10400 fluorescence intensity (a.u.) for the second.

Compared with “CCACCTCACCCTCACCCGTAGTCGCCCACACGCAAACGATCGGAGTCACCTAGTGCAG”, “TCCCAATCCCACCTTTCATATATCATTTGTCAAACACACCCGGAGTCACCTAGTGCAG” is lower in binding signal: 11100 fluorescence intensity (a.u.) for the first, 8840 fluorescence intensity (a.u.) for the second.

First: GTGCTATTCTGTTTGTTGTGATTGCTGAATTAGATCAAGACGGAGTCACCTAGTGCAG
Second: TCTCTTCTTTTATTTCCTTGACGTGTGTTATAGCTCTTCTCGGAGTCACCTAGTGCAG
The binding signal of the first is lower: 8250 fluorescence intensity (a.u.) for the first, 11900 fluorescence intensity (a.u.) for the second.

— publication PMC7819943, “Rice protein-binding microarrays: a tool to detect cis-acting elements near promoter regions in rice”
